In paper PMC13098282:
No signal at the amounts used counts as a negative. Protein sequences can lack the tags named with them. For some of these results: Construct, isoform or probe ends are uncertain for at least one entry. For some of these results: The comparison behind a weaker result is the experiment's own reference, which may not be listed here.

Assays:
Assay in all cases: EMSA
[1] = molecular target: T1, MSMEG_3822 (Mycobacterium smegmatis) (UniProt A0QYX6); settings: 20 mM HEPES pH 7.6, 1 mM EDTA, 10 mM (NH4)2SO4, 1 mM DTT, 0.2% Tween 20, 30 mM KCl; 310 fmol DNA in 20 uL, 0/25/75 ng protein (Fig S7: 1 or 3 uM); 15 min; recombinant protein; label: DIG (kit, stated as 5' end); probe letters rebuilt from the primers and the genome
T1 sequence (looked up, limits assumed): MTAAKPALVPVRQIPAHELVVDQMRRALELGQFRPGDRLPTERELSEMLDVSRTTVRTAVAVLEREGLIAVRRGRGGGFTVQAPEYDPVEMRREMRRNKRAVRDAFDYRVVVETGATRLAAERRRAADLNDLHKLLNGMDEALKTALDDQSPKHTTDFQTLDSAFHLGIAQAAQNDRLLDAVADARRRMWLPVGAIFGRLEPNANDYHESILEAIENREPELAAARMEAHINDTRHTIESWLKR

[2] = molecular target: T2, GylR (Mycobacterium smegmatis) (UniProt A0R727); settings: 20 mM HEPES pH 7.6, 1 mM EDTA, 10 mM (NH4)2SO4, 1 mM DTT, 0.2% Tween 20, 30 mM KCl, 310 fmol DNA in 20 uL, 0/25/75 ng protein (Fig S7: 1 or 3 uM), 15 min, recombinant protein, residues 1-253, label: DIG (kit, stated as 5' end), probe letters rebuilt from the primers and the genome
T2 sequence (looked up): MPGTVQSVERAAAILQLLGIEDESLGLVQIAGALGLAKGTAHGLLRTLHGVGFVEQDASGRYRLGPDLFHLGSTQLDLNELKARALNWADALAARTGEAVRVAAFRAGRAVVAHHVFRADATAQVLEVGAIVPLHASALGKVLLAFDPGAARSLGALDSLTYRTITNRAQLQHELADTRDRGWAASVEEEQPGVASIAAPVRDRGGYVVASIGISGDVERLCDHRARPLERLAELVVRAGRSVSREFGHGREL

[3] = molecular target: T3, MSMEG_2386 (Mycobacterium smegmatis) (UniProt A0QUY8); settings: 20 mM HEPES pH 7.6, 1 mM EDTA, 10 mM (NH4)2SO4, 1 mM DTT, 0.2% Tween 20, 30 mM KCl; 310 fmol DNA in 20 uL, 0/25/75 ng protein (Fig S7: 1 or 3 uM); 15 min; recombinant protein; label: DIG (kit, stated as 5' end); probe letters rebuilt from the primers and the genome
T3 sequence (looked up, limits assumed): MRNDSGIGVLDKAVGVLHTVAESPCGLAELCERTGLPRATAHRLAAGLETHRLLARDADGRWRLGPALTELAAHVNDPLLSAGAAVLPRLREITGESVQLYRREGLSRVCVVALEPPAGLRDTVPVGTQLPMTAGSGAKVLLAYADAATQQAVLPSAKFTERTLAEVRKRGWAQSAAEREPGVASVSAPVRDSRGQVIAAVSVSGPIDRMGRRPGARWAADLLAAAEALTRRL

[4] = molecular target: T4, Crp1 (Mycobacterium smegmatis) (UniProt A0QPW2); settings: 20 mM HEPES pH 7.6, 1 mM EDTA, 10 mM (NH4)2SO4, 1 mM DTT, 0.2% Tween 20, 30 mM KCl, 310 fmol DNA in 20 uL, 0/25/75 ng protein (Fig S7: 1 or 3 uM), 15 min, recombinant protein, residues 1-224, label: DIG (kit, stated as 5' end), probe letters rebuilt from the primers and the genome
T4 sequence (looked up): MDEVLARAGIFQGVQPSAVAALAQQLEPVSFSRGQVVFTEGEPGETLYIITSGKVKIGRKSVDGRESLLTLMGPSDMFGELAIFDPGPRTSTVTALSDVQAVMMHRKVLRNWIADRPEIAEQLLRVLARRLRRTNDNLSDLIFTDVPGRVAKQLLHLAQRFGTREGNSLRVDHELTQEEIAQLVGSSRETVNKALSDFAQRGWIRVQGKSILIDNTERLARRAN

[5] = molecular target: T5, MSMEG_2600 (Mycobacterium smegmatis) (UniProt A0QVJ9); settings: 20 mM HEPES pH 7.6, 1 mM EDTA, 10 mM (NH4)2SO4, 1 mM DTT, 0.2% Tween 20, 30 mM KCl; 310 fmol DNA in 20 uL, 0/25/75 ng protein (Fig S7: 1 or 3 uM); 15 min; recombinant protein; label: DIG (kit, stated as 5' end); probe letters rebuilt from the primers and the genome
T5 sequence (looked up, limits assumed): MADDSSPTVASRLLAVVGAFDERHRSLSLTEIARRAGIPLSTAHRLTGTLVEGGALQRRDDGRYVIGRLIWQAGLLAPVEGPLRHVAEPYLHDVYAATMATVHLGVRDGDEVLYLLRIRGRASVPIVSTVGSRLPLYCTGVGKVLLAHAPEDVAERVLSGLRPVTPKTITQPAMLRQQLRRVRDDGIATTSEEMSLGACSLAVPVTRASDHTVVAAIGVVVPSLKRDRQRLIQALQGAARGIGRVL

[6] = molecular target: T6, MSMEG_0916 (Mycobacterium smegmatis) (UniProt A0QQY1); settings: 20 mM HEPES pH 7.6, 1 mM EDTA, 10 mM (NH4)2SO4, 1 mM DTT, 0.2% Tween 20, 30 mM KCl; 310 fmol DNA in 20 uL, 0/25/75 ng protein (Fig S7: 1 or 3 uM); 15 min; recombinant protein; label: DIG (kit, stated as 5' end); probe letters rebuilt from the primers and the genome
T6 sequence (looked up, limits assumed): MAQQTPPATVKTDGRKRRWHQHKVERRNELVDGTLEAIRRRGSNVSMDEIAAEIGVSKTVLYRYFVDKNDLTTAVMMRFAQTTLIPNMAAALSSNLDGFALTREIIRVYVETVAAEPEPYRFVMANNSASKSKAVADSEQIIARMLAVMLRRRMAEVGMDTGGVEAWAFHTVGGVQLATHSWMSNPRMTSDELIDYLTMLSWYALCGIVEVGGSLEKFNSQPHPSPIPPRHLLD

Sequence	binding result [1]	binding result ([2]; 50 mM glycerol-3-phosphate)	binding result ([2]; no G3P)	binding result [3]	binding result ([4]; 50 mM cAMP)	binding result ([4]; no cAMP)	binding result [5]	binding result [6]
GACCGGCGAGATGTCTGGAAGTTCGTCGATCGCATTCTGACCGGCACTGTGACCGTTGCTGGCCATTCCATCCTCCCGCTCGGAGTTTCGGCGACGCGGCAAACATATCCTCGCCTATGCGCGGATGCCTATCGCTTTCGCGCAATTCCTGTCCGGATTGCGCAAAGATAGGTGCTCTCATGCGCGTCTGACGATCAGGAGGGTTGCGGTGCGGGACCGAAATCCGTTATCGCTGACCAAAGTTAGGCTTTCCTTAGCTCGCGTATCAGGCCGGGCGTTGCTGGGGGTTCCCGGATGTCACGGCTGACCCGGCTCGGGTTCATCGACATCCGCCGCACCAGCGATCCCGTGCGGCGAAAGGTGCGCAGCCGCGGCGTCCCGCCCGCGCTGGCCGATCACGAGATCTTCTACACCGAGGACGTCCGCGAGGCCGCGCGTCTGGTCG (double strand) [Phuc (huc promoter)]	no binding	no binding	no binding	no binding	no binding	no binding	no binding	no binding
CACCCCGAACAGGATGAGGATGCCGGCGAACTCGGCGCAGAGTTCTCCGACGAGTGTTCGTCGTGACATGTTGGTCTCCTTGGCTCTTCGAACCGCATGTGTTGTGCGTCATACGAGGCGTGCGTTGTGAACCTAGAAGCCAGAGGTCGGCCGGGCATCACCCGTCGTTCGGCATCGCCGAACACGGCCCCGGTCGACAATGCCGACCCTCGGGGTCGACATGGTCGAACGATTTGGTGATCCTGAAACTTGTGCCAGGCACTGTGCAGTCCGTGGAACGGGCCGCGGCGATACTGCAGCTAC (double strand) [PglpFKD (glpFKD promoter)]		binds more weakly	binds					
